These are yes or no findings as the source states them, for the method shown. Binding seen in cells or lysates may run through a third protein. Some binding calls cover weakened binding; strength is not graded here.
Biological target: ATRX (human (endogenous in K562)) (UniProt P46100)
Experiment: co-IP

Amino acid sequences for entries named in this document (tags omitted).
UniProt P46100: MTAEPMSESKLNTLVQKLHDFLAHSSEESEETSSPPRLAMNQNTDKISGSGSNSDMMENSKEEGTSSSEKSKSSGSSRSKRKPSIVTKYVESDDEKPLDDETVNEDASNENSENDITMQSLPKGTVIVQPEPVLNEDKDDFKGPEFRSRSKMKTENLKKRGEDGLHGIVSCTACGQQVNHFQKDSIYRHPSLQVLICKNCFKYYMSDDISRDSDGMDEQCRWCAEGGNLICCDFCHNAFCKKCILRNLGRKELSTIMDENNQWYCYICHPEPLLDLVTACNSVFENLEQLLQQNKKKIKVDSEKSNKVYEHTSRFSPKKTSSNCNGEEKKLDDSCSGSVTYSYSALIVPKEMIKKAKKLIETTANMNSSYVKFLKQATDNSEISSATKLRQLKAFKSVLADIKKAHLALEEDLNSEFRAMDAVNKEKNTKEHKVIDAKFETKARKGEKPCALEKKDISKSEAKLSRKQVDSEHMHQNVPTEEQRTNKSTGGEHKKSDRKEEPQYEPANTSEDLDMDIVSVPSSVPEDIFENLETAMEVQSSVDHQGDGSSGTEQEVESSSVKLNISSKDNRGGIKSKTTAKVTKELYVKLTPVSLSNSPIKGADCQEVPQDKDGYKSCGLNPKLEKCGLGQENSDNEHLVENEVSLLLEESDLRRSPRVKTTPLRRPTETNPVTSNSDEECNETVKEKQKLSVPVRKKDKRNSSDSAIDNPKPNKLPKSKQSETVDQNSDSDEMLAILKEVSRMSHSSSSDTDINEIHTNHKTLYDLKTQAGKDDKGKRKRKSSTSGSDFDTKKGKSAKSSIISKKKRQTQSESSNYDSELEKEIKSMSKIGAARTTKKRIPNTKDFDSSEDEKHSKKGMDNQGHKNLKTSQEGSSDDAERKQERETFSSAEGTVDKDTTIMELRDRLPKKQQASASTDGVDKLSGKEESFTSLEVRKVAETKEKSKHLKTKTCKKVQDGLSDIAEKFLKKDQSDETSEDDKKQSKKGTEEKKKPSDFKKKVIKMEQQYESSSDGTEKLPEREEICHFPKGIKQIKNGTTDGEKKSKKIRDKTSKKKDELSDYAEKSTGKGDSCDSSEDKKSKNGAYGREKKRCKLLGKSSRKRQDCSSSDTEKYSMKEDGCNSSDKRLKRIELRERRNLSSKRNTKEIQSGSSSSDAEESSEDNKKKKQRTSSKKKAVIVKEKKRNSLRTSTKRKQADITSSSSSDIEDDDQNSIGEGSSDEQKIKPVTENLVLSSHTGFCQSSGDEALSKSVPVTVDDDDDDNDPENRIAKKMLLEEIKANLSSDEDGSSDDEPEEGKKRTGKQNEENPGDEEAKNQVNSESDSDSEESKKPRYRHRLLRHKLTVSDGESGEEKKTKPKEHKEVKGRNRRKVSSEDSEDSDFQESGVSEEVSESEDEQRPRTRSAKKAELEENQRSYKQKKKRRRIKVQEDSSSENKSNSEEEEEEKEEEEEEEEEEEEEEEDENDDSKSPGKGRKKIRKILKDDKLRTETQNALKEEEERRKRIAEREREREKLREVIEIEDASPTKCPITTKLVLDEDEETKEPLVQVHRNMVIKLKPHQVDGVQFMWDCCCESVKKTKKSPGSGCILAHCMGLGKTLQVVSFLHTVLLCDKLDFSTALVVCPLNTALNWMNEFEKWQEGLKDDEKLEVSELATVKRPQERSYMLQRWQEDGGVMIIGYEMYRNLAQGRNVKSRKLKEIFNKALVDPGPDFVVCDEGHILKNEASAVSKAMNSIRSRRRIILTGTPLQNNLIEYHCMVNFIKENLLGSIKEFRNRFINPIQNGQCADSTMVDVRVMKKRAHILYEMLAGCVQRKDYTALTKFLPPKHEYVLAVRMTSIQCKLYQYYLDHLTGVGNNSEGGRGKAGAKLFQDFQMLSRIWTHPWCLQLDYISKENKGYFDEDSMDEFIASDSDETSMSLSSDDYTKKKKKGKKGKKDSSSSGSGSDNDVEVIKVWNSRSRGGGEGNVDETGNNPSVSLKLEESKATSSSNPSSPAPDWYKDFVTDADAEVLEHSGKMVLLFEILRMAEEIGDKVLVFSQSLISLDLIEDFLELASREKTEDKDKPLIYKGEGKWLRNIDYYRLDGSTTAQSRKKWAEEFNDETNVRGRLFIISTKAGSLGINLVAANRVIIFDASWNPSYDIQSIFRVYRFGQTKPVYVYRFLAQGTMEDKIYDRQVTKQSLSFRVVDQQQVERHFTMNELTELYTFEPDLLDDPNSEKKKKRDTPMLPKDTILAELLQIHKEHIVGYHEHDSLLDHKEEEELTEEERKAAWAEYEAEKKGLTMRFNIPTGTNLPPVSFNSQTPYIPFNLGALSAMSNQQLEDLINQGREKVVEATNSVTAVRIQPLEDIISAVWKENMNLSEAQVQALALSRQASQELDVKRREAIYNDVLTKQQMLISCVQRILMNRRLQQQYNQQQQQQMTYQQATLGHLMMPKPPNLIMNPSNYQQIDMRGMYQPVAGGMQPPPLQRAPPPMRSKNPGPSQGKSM
UniProt Q13263: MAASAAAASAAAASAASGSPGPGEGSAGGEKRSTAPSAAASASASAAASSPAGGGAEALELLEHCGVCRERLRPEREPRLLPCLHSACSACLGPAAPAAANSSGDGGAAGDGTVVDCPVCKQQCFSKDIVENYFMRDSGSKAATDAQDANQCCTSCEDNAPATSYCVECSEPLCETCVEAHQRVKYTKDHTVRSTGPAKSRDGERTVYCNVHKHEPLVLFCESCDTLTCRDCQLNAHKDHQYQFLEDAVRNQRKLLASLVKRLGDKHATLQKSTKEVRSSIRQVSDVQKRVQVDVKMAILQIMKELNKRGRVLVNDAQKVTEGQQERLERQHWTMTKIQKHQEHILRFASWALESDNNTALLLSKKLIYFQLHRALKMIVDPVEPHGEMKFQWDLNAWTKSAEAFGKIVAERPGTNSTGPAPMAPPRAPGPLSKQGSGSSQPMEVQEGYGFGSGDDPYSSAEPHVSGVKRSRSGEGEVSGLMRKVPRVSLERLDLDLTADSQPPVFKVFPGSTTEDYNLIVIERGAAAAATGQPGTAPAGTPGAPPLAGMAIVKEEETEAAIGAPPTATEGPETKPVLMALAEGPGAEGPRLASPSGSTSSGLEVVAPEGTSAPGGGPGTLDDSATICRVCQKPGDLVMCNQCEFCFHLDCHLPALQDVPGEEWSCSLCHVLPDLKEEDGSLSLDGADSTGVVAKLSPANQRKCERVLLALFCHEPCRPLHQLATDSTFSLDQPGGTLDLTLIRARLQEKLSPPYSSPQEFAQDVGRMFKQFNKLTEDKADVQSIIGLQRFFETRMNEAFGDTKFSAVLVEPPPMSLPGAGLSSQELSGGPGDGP
UniProt Q96GC6: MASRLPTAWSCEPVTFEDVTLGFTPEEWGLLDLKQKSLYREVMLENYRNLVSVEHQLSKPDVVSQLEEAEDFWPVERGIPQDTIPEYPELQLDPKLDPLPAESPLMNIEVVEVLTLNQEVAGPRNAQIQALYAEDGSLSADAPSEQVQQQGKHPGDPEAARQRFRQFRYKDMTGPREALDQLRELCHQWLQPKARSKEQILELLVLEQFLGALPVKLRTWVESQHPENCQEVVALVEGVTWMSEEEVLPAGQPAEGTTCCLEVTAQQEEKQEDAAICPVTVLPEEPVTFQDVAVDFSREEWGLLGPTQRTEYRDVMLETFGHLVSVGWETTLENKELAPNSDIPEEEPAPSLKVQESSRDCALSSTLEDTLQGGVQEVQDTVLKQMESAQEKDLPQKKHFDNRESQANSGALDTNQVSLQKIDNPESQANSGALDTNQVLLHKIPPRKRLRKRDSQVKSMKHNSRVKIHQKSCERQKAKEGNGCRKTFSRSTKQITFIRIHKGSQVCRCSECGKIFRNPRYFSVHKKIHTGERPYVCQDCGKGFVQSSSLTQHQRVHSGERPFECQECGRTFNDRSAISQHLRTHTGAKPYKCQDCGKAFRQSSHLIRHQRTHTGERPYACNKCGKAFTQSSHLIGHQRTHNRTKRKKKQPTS

Substance | binding
TRIM28 (from UniProt Q13263 1-835) | binds
ZNF274 (from UniProt Q96GC6 1-653) | binds

From article doi:10.1101/027789
